Experimental data: article PMC8355244, “A fragment-based approach identifies an allosteric pocket that impacts malate dehydrogenase activity” (Communications Biology, 2021)
Several values for one entry are separate records, joined by “and”; a condition that tells them apart may be missing. Equal values may be shown once. This continues a long series; more values of the same kind are listed elsewhere.

By UniProt entry, the sequences of proteins in these tests, tags left out.
UniProt Q6VVP7, entry or part of it: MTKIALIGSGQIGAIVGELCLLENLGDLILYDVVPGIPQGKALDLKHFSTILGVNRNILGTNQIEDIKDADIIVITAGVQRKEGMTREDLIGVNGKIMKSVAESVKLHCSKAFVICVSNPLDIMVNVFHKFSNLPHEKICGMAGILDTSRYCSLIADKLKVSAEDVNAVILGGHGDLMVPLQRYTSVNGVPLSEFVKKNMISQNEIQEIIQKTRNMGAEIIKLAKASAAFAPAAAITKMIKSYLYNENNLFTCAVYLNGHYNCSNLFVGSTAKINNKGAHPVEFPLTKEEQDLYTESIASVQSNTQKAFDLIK

Biological target: T1, PfMDH (Plasmodium falciparum, UniProt Q6VVP7)
T1 construct: The full-length WT PfMDH gene was cloned into pETM-13; made in house; host or cells: E. coli Rosetta 2 (DE3) pLysS
Experiment: Thermal shift assay (TSA)
Assay type: binding
Settings: for TSA melting curve raw signal: triplicate columns; for TSA melting curve raw fluorescence signal: three replicate columns
Experimental: The TSA experiment was conducted in a BioRad CSX 96 (Biorad). Each reaction consisted of 1 mM of compound (100 mM stock in 100% (v/v) DMSO) and 10 μM PfMDH in 100 mM Na–phosphate buffer pH 7.4, 400 mM NaCl, and 10× Sypro Orange (Invitrogen) for a total volume of 100 μl. Control experiments were performed with 1% (v/v) DMSO. Inflection points were determined using BioRad CFX96™ control software. Generally, a temperature increase of over 1 °C is interpreted as a result of the stabilization of the protein-ligand interaction. On the contrary, a negative shift is considered a destabilization caused by the fragment.

Structure (SMILES): CC(C)c1ccc(-c2csc(N)n2)cc1 [4PA-iPr]
- TSA melting curve raw signal (Temperature 25.5): 8953.812 and 9615.673 and 6410.499
- TSA melting curve raw signal (Temperature 26): 8913.071 and 9583.729 and 6382.814
- TSA melting curve raw signal (Temperature 26.5): 8872.33 and 9551.785 and 6355.128
- TSA melting curve raw signal (Temperature 27): 8831.589 and 9519.841 and 6327.443
- TSA melting curve raw signal (Temperature 27.5): 8790.847 and 9487.897 and 6299.757
- TSA melting curve raw signal (Temperature 28): 8750.106 and 9455.953 and 6272.072
- TSA melting curve raw signal (Temperature 44.5): 7813.142 and 5547.261
- TSA melting curve raw signal (Temperature 45): 7295.721 and 7766.885 and 5548.777
- TSA melting curve raw signal (Temperature 45.5): 7254.178 and 7721.364 and 5552.364
- TSA melting curve raw signal (Temperature 46): 7213.441 and 7676.718 and 5557.839
- TSA melting curve raw signal (Temperature 46.5): 7173.35 and 7633.145 and 5565.544
- TSA melting curve raw signal (Temperature 47): 7134.4 and 7590.836 and 5575.27
- TSA melting curve raw signal (Temperature 47.5): 7096.606 and 7549.647 and 5587.314
- TSA melting curve raw signal (Temperature 48): 7060.883 and 7509.799 and 5602.396
- TSA melting curve raw signal (Temperature 48.5): 7027.134 and 7471.571 and 5620.657
- TSA melting curve raw signal (Temperature 49): 6995.64 and 7436.006 and 5642.418
- TSA melting curve raw signal (Temperature 49.5): 6966.531 and 7403.371 and 5667.989
- TSA melting curve raw signal (Temperature 50): 6939.992 and 7373.974 and 5697.365
- TSA melting curve raw signal (Temperature 50.5): 6915.74 and 7348.252 and 5730.298
- TSA melting curve raw signal (Temperature 51): 6894.711 and 7327.048 and 5767.652
- TSA melting curve raw signal (Temperature 51.5): 6877.353 and 7310.078 and 5809.779
- TSA melting curve raw signal (Temperature 52): 6863.434 and 7298.022 and 5857.055
- TSA melting curve raw signal (Temperature 52.5): 6853.613 and 7291.416 and 5910.05
- TSA melting curve raw signal (Temperature 53): 6848.363 and 7290.403 and 5969.014
- TSA melting curve raw signal (Temperature 53.5): 6846.76 and 7294.591 and 6033.413
- TSA melting curve raw signal (Temperature 54): 6848.405 and 7304.165 and 6102.999
- TSA melting curve raw signal (Temperature 54.5): 6853.206 and 7318.041 and 6177.192
- TSA melting curve raw signal (Temperature 55): 6859.987 and 7335.374 and 6254.865
- TSA melting curve raw signal (Temperature 55.5): 6867.57 and 7355.488 and 6334.894
- TSA melting curve raw signal (Temperature 56): 6875.739 and 7377.33 and 6416.393
- TSA melting curve raw signal (Temperature 56.5): 6883.298 and 7399.335 and 6496.832
- TSA melting curve raw signal (Temperature 57): 6889.403 and 7420.875 and 6574.472
- TSA melting curve raw signal (Temperature 57.5): 6893.178 and 7440.745 and 6647.471
- TSA melting curve raw signal (Temperature 58): 6893.545 and 7457.145 and 6713.44
- TSA melting curve raw signal (Temperature 58.5): 6889.516 and 7468.876 and 6770.17
- TSA melting curve raw signal (Temperature 59): 6880.874 and 7475.253 and 6816.856
- TSA melting curve raw signal (Temperature 59.5): 6866.783 and 7475.114 and 6852.332
- TSA melting curve raw signal (Temperature 60): 6847.162 and 7468.071 and 6875.746
- TSA melting curve raw signal (Temperature 60.5): 6822.416 and 7454.024 and 6887.316
- TSA melting curve raw signal (Temperature 61): 6792.202 and 7433.018 and 6887.429
- TSA melting curve raw signal (Temperature 61.5): 6756.922 and 7405.268 and 6876.736
- TSA melting curve raw signal (Temperature 62): 6717.488 and 7371.773 and 6856.679
- TSA melting curve raw signal (Temperature 62.5): 6674.467 and 7333.182 and 6828.949
- TSA melting curve raw signal (Temperature 63): 6628.562 and 7290.503 and 6795.364
- TSA melting curve raw signal (Temperature 63.5): 6580.985 and 7245.03 and 6757.268
- TSA melting curve raw signal (Temperature 64): 6532.41 and 7197.285 and 6716.291
- TSA melting curve raw signal (Temperature 64.5): 6482.924 and 7147.845 and 6672.961
- TSA melting curve raw signal (Temperature 65): 6432.938 and 7097.141 and 6628.112
- TSA melting curve raw fluorescence signal (Temperature 65.5): 6382.678 and 7045.752 and 6582.028
- TSA melting curve raw fluorescence signal (Temperature 66): 6332.399 and 6993.517 and 6535.021
- TSA melting curve raw fluorescence signal (Temperature 66.5): 6281.848 and 6941.307 and 6487.281
- TSA melting curve raw fluorescence signal (Temperature 67): 6231.507 and 6889.03 and 6439.431
- TSA melting curve raw fluorescence signal (Temperature 67.5): 6181.829 and 6836.712 and 6391.405
- TSA melting curve raw fluorescence signal (Temperature 68): 6132.792 and 6784.379 and 6343.501
- TSA melting curve raw fluorescence signal (Temperature 68.5): 6084.495 and 6732.153 and 6296.56
- TSA melting curve raw fluorescence signal (Temperature 69): 6036.993 and 6679.716 and 6250.4
- TSA melting curve raw fluorescence signal (Temperature 69.5): 5990.041 and 6626.622 and 6204.816
- TSA melting curve raw fluorescence signal (Temperature 70): 5942.967 and 6573.345 and 6160.011
- TSA melting curve raw fluorescence signal (Temperature 70.5): 5895.779 and 6519.831 and 6116.266
- TSA melting curve raw fluorescence signal (Temperature 71): 5848.265 and 6466.13 and 6073.467
- TSA melting curve raw fluorescence signal (Temperature 71.5): 5800.483 and 6412.157 and 6032.092
- TSA melting curve raw fluorescence signal (Temperature 72): 5752.971 and 6358.991 and 5992.542
- TSA melting curve raw fluorescence signal (Temperature 72.5): 5705.872 and 6306.415 and 5955.226
- TSA melting curve raw fluorescence signal (Temperature 73): 5659.486 and 6254.351 and 5919.738
- TSA melting curve raw fluorescence signal (Temperature 90): 5193.688 and 4738.287
- TSA melting curve raw fluorescence signal (Temperature 90.5): 4670.141 and 5159.996 and 4698.069
- TSA melting curve raw fluorescence signal (Temperature 91): 4642.19 and 5126.709 and 4658.778
- TSA melting curve raw fluorescence signal (Temperature 91.5): 4614.16 and 5094.123 and 4620.311
- TSA melting curve raw fluorescence signal (Temperature 92): 4586.176 and 5061.91 and 4582.446
- TSA melting curve raw fluorescence signal (Temperature 92.5): 4557.856 and 5030.347 and 4545.343
- TSA melting curve raw fluorescence signal (Temperature 93): 4529.4 and 4999.124 and 4508.199
- TSA melting curve raw fluorescence signal (Temperature 93.5): 4500.492 and 4967.515 and 4470.766
- TSA melting curve raw fluorescence signal (Temperature 94): 4471.078 and 4935.782 and 4433.574
- TSA melting curve raw fluorescence signal (Temperature 94.5): 4441.637 and 4904.019 and 4396.291
- TSA melting curve raw fluorescence signal (Temperature 95): 4411.095 and 4872.082 and 4359.492
